# Screening data, single-dose tests

Results are given as percent effect. How 0% and 100% were set is not recorded. Most values in the screen are low, and negative values occur. Compounds were drawn at random from those tested, without regard to their results.

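Whole-parasite assay of Trypanosoma brucei over 72 hours; the read-out is not stated. Concentration: 30 µM. Direction is inferred from retests: higher values go with stronger inhibition. Values scatter widely below zero; nearly all retest evidence comes from the higher of the two concentrations used. About 64,000 compounds were tested under these conditions; 1.5% (about 940) showed 50% or more at least once.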

O=C(CCSc1ccccc1F)NS(=O)(=O)c1ccc2c(c1)OCCO2 read -18.92%. Result for Cc1noc(C)c1C(=O)N1Cc2ncn(C)c2C(COCC(C)C)C1.O=C(O)C(F)(F)F (stereo unspecified) was -78.73%. For O=C1NCCCCC1NS(=O)(=O)N1CCCCCC1 (stereo unspecified) the result was -10.63%. Result for [H][C@]12CC[C@]([H])(CN(S(C)(=O)=O)C1)N(CC(=O)Nc1ccn(C)n1)C2 was -4.508%.

With Cc1cccc(OC2CN(C(=O)C3CC(=O)N(C(C)(C)C)C3)C2)c1 (stereo unspecified) the screen gave 16.27%. For [H][C@@]12CC(C)=CC[C@]1([H])CN(C(=O)c1ccnc(CCC)c1)C2 the result was 56.41%. With CN1CC2(CCN(C(=O)c3ccc4c(=O)n(C)cnc4c3)C2)OC1=O (stereo unspecified) the screen gave -44.83%. COCC(=O)N1CCN(c2ncnc3cccc(F)c23)CC1 read -30.13%.

O=C(CC1CCCC1)N1CCC(c2cc3ncccc3c(O)n2)CC1 gave 4.018%. [H][C@]12CN(S(=O)(=O)c3ccc(C(=O)NCCSCC)cc3)[C@]([H])(CN1)C2 gave -32.68%. Result for O=C(O)C(F)(F)F.O=C(O)C(F)(F)F.[H][C@@]12C[C@@H](OCc3ccccc3)CN1CCN(C(=O)c1cccnc1)C2 was -189.7%. Cn1ccc(CN2CCC3(CCCN3CC3CC3)CC2)n1.O=C(O)C(F)(F)F.O=C(O)C(F)(F)F read -89.65%.

With O=C(O)C(F)(F)F.O=C(O)C(F)(F)F.[H][C@@]12COC[C@]1(COCC1CC1)CN(Cc1ccncc1)C2 the screen gave -12.66%. With CC1(c2ncc(CN3CCN(c4ccccn4)CC3)cn2)CCCCO1 (stereo unspecified) the screen gave 2.318%. Cc1cc2ccccc2n1CCC(=O)N1CCCC1Cn1cccn1 (stereo unspecified) read 22.57%. CC(C)c1ccc(OCCC(=O)N(C)CC(=O)N(C)C)cc1 read -53.06%.

COCCn1cc(NC(=O)NCC(c2cccc(F)c2)N(C)C)cn1 (stereo unspecified) gave 9.218%. CCN(CC)CC(=O)N1CCN(CCCc2ccncc2)CC1 gave -25.04%. COc1cccc(COCC(=O)N2CCCC(n3cccn3)C2)c1 (stereo unspecified) gave 0.6259%. Result for CCOC(=O)C(CO)NC(=O)CCc1cccc(OC2CCCC2)c1 (stereo unspecified) was -10.39%.

O=S(=O)(c1cn[nH]c1)N1C[C@@H](O)[C@H](N2CCc3ccccc3C2)C1 read -14.01%. For CCCC(O)CN1CCC(=O)N(C)Cc2cc(F)ccc21 (stereo unspecified) the result was -14.31%. For CS(=O)(=O)c1snnc1C1CCN(Cc2ccncc2)CC1 the result was -23.77%. For CNC(=O)N1CCC2(CC1)c1ncc(C)n1CCN2C.O=C(O)C(F)(F)F.O=C(O)C(F)(F)F the result was 11.26%.

For CN(Cc1ccc(N2CCOCC2)cc1)C(=O)Cn1cccnc1=O the result was 0.3466%. Cc1ccc(N2CCCC(NCc3nc(C)c(C)o3)C2)nn1 (stereo unspecified) gave 10.16%. Cn1c(=O)[nH]c(=O)c2cc(C(=O)N3CCCC3C3CCCC3)cnc21 (stereo unspecified) read -14.81%. Result for Cc1cccc(N2CCOCC3(C2)CN(c2cccnc2)C(=O)CO3)n1 (stereo unspecified) was -19.89%.

With Cn1cc(CN2CCC3(CCN(c4cnn(C)c4)C3=O)C2)cn1.O=C(O)C(F)(F)F (stereo unspecified) the screen gave -6.498%. Result for CNC(=O)[C@@H]1C[C@H](n2cc(-c3ccc(Cl)cc3)nn2)CN1 was -14.86%. [H][C@@]12CNCC[C@]1(O)CCN(c1ccnc3ccccc13)C2 gave -30.69%. For CCN1CCCC(O)(CNCc2ccncc2)C1 (stereo unspecified) the result was -10%.

CCCc1ccc2oc(C(=O)N3CCN(CCC(N)=O)CC3)c(C)c2c1 read -48.15%. CC(=O)N1CCOC(c2cc(N3CC(O)C3)nc(C)n2)C1 (stereo unspecified) gave 21.78%. O=C(NC(Cc1ccsc1)c1nccs1)C1CC1 (stereo unspecified) read 1.676%. For Cc1ccc(-c2nc(CN3CCN(CC(=O)N(C)C)CC3)cs2)o1 the result was 0.1987%.

With Cc1ncc(CN(C)Cn2nc(-c3ccccc3)oc2=O)s1 the screen gave -25.69%. With O=C(O)C(F)(F)F.O=C(O)C(F)(F)F.[H][C@@]12OCCN(C3CCCC3)[C@@]1([H])CC[C@@H]2Oc1cccnc1 the screen gave -21.55%. With Cc1cc(=O)n2ncnc2n1CC(O)c1ccccc1 (stereo unspecified) the screen gave -31.72%. Result for COCC1CC2(CCN(C(=O)c3ccccc3C)CC2)CN1C(C)C.O=C(O)C(F)(F)F (stereo unspecified) was -10.57%.

For Cc1cccc(OC2CCN(S(=O)(=O)Cc3cccc(F)c3)CC2)n1 the result was -21.25%. Result for CN(CC1CCOC1)c1ccc(Br)cn1 (stereo unspecified) was -35.58%. Result for CC(C)COC(C)C(=O)NCCNS(C)(=O)=O (stereo unspecified) was -12.14%. COCCNC(=O)C(C)n1nc(-c2ccco2)cc(N)c1=O (stereo unspecified) gave -5.59%.

CCN(Cc1ccncc1)c1nc(C)nc2oc(C)nc12 gave -1.317%. For Cc1cccc(-n2cnc(Cl)c2CO)c1 the result was -42.65%.

Some entries from above, unchanged:

Compound	percent effect
O=C(O)C(F)(F)F.O=C(O)C(F)(F)F.[H][C@@]12C[C@@H](OCc3ccccc3)CN1CCN(C(=O)c1cccnc1)C2	-189.7
Cc1ccc(-c2nc(CN3CCN(CC(=O)N(C)C)CC3)cs2)o1	0.1987
CCN(Cc1ccncc1)c1nc(C)nc2oc(C)nc12	-1.317
COCC1CC2(CCN(C(=O)c3ccccc3C)CC2)CN1C(C)C.O=C(O)C(F)(F)F (stereo unspecified)	-10.57

From ChEMBL document CHEMBL3988442, “University of Dundee, Small-Polar-MMV Screening Library” (2021).